Test results: patent publication US20050074826A1
Results are given in words; binding and its absence hold for the method and conditions named. Some binding calls cover weakened binding; strength is not graded here. Each block holds one binder with its values, some of them ahead of it.

Protein sequences, listed by entry. Tags and fused reporters are not part of them. Lines headed by an entry give the natural chain unless they say otherwise; changes in a name come on top.
UniProt P25106: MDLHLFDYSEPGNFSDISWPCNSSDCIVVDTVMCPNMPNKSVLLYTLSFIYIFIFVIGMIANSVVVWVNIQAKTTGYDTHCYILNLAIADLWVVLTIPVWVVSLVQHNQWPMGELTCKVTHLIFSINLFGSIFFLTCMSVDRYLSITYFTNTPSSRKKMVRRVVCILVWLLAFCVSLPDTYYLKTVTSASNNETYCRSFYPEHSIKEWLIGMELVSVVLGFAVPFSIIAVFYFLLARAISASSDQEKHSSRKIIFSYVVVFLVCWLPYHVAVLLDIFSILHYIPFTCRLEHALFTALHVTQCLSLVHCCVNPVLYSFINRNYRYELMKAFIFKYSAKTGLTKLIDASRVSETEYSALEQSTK

Key:
[1] = molecular target: CCX-CKR2 (RDC1), human (human) (UniProt P25106); assay: DisplaceMax displacement of 125I SDF-1α on MCF-7 cells (CCX-CKR2)
[2] = molecular target: CCX-CKR2 (RDC1), human (human) (UniProt P25106); assay: radioligand displacement on MCF-7 cells, 125I SDF-1α and 125I I-TAC as probes
[3] = molecular target: CCX-CKR2 (RDC1), human (human) (UniProt P25106); assay: competition with radiolabeled SDF-1 on MDA MB 435s cells transfected with CCX-CKR2
[4] = molecular target: CCX-CKR2 (RDC1), human (human) (UniProt P25106); assay: competition with 125I SDF-1α on MDA MB 435s cells stably transfected with CCX-CKR2
[5] = molecular target: CCX-CKR2 (RDC1), human (human) (UniProt P25106); assay: dose response competition with 125I SDF-1α on MCF-7 cells (CCX-CKR2)

- binding [1]: binds
B1: mouse I-TAC (ligand, UniProt Q9JHH5 22-100, looked up)
chain: FLMFKQGRCLCIGPGMKAVKMAEIEKASVIYPSNGCDKVEVIVTMKAHKRQRCLDPRSKQARLIMQAIEKKNFLRRQNM

- binding [2]: binds
- binding [3]: binds
- binding [1]: binds
- binding [4]: binds
- binding [5]: binds
B2: human I-TAC (ligand, UniProt O14625 22-94, looked up)
chain: FPMFKRGRCLCIGPGVKAVKVADIEKASIMYPSNNCDKIEVIITLKENKGQRCLNPKSKQARLIIKKVERKNF
